Assay [1] concerns the target T1, Alp4-MBP (S. pombe), Q9Y705.
T1 chain: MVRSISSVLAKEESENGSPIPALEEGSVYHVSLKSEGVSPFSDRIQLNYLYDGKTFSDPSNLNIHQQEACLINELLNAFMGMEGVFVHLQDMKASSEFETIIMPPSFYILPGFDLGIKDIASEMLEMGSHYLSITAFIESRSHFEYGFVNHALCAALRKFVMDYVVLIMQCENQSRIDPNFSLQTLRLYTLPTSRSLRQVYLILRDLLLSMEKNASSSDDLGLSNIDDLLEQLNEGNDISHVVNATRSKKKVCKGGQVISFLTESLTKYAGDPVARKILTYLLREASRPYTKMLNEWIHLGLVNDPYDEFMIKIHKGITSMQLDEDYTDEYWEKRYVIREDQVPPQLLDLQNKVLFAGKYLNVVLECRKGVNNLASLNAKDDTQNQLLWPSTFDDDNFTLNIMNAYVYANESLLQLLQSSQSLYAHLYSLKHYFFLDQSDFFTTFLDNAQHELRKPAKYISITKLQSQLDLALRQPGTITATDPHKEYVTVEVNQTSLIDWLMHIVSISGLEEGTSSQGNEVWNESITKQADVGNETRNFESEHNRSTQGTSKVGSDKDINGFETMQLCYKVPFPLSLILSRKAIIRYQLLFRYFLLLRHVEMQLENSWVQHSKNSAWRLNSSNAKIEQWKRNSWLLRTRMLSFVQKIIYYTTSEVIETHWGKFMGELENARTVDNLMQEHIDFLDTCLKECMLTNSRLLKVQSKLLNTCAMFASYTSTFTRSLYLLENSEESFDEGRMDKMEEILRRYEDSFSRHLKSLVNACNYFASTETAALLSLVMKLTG
The assay is described as follows: pull-down; amylose (MBP) purification of Alp4-MBP or Alp6-MBP coexpressed with Mzt1 only; SDS-PAGE. The conditions noted are these: remark: other sources report otherwise.

By UniProt entry, the sequences of proteins in these tests, tags left out. Where a name states a change or a piece, a line headed by the entry shows the natural chain unless it says otherwise.
UniProt P25295: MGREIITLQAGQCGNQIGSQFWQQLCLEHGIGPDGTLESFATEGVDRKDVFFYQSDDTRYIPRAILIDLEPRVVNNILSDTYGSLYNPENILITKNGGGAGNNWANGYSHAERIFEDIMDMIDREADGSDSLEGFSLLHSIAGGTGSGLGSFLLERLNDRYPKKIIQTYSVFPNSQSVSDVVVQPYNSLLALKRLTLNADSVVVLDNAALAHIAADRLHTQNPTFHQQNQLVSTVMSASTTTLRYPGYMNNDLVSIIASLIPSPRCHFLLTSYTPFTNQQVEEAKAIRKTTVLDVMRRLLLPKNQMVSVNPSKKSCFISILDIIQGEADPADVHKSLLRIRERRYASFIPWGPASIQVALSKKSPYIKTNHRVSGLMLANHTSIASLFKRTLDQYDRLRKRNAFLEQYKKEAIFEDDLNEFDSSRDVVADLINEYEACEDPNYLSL

The target of assay [2] is T2, Alp6-MBP (S. pombe, UniProt Q9USQ2 1-832).
T2 construct: Alp6, S. pombe γ-TuSC protein, homolog of human GCP3; also called Alp6 (homolog of human GCP3) with C-terminal MBP-6xHis tag; tagged subunit of γ-TuSC^Alp6-MBP; source: High Five insect cells (MultiBac baculovirus), coexpressed with partners; in lysate, and purified on amylose; not shown: MBP, C-terminal, kept; 6xHis, C-terminal, kept
T2 sequence (looked up): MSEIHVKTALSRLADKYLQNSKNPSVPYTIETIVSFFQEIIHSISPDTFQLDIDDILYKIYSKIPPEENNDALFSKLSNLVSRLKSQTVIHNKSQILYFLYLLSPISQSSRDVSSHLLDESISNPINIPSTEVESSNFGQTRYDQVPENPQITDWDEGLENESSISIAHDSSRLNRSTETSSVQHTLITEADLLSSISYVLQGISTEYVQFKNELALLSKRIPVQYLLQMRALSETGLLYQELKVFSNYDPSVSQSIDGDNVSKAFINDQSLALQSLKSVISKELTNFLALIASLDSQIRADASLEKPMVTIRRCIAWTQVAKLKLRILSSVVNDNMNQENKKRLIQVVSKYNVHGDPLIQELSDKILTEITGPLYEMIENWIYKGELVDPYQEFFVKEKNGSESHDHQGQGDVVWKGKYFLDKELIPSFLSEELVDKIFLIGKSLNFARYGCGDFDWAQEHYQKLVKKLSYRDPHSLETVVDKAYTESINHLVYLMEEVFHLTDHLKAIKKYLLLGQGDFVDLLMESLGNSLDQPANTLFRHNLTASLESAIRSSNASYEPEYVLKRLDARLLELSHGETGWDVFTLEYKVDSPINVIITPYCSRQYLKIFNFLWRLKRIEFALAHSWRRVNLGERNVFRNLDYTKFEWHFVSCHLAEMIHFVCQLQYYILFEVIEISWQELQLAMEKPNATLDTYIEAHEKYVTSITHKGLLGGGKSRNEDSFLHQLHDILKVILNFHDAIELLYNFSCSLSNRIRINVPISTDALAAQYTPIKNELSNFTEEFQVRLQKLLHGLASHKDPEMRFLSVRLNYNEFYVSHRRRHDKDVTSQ
Nature of the assay: pull-down; amylose resin purification via Alp6-MBP from High Five cells coexpressing γ-TuSC^Alp6-MBP proteins, Mto1/2[bonsai] and Mzt1 (MGM holocomplex); HB100 buffer, 4°C, SDS-PAGE.

The target of assay [3] is γ-TuSC^Alp6-MBP:Mzt1 complex (S. pombe) (UniProt Q9USQ2+Q9Y705+P25295+P0CF96). Nature of the assay: co-sedimentation; 10-30% glycerol density gradient in HB100, 55,000 rpm, 4°C, 45 or 80 min; 50 μL of each purified complex at 1 mg/mL mixed and incubated 15 min at 4°C before loading; both purified.
Assay [4] deals with T3, Alp4-MBP (S. pombe) (UniProt Q9Y705).
T3 sequence: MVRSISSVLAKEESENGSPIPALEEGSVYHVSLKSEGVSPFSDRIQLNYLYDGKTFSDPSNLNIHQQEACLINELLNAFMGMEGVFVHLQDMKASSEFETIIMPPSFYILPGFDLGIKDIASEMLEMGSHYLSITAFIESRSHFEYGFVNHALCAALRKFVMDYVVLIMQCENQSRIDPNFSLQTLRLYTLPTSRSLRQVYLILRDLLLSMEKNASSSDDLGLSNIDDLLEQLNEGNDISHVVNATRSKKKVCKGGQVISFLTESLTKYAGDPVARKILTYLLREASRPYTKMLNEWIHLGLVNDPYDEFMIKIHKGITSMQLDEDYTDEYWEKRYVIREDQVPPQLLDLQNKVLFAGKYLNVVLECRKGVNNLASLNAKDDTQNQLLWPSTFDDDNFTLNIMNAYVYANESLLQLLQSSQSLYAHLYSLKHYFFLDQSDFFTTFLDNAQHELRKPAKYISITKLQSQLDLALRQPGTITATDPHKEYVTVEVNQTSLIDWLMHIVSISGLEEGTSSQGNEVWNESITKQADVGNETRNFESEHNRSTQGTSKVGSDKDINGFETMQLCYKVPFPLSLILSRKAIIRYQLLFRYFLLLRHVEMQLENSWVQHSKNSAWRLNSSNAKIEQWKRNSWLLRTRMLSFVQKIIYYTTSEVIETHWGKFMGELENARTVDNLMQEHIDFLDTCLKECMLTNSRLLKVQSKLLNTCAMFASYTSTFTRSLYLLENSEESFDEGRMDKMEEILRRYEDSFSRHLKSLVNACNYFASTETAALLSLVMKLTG
Nature of the assay: pull-down; amylose (MBP) purification of Alp4-MBP coexpressed with Mto1/2[bonsai], in the absence or presence of Mzt1, without other γ-TuSC proteins; SDS-PAGE.

For assay [5], the target named is T4, 6xHis-Mto1[bonsai] (S. pombe) (UniProt O94488).
T4 sequence: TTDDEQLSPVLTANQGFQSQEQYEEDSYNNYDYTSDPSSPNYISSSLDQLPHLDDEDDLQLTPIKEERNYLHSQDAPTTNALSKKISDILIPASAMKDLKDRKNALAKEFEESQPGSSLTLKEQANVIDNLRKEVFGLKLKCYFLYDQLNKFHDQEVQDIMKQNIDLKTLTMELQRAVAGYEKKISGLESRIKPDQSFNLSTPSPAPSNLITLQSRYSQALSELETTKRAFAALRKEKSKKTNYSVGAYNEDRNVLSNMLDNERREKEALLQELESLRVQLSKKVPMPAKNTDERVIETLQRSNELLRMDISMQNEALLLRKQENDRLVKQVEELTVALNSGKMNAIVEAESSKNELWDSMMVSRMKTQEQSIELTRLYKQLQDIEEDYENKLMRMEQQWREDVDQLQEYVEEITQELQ
Nature of the assay: pull-down; purification of Mto1/2[bonsai] via the 6xHis tag on Mto1[bonsai]: ammonium sulfate cut, Ni2+ Fractogel, then Superose 6 in HB100.

These are yes or no findings as the source states them, for the method shown. For some assays here: In cells and extracts the contact can be indirect. Some binding calls cover weakened binding; strength is not graded here. For some assays here: Tags and fused reporters may be left off the sequences shown.

B1: Mzt1-6xHis (natural protein, S. pombe, UniProt P0CF96 1-64, looked up)
chain: MSESTKETIEVLYEIGTLLGTELDKTTLSLCISLCENNVHPEAIAQIIREIRMAQEQTVDTEPS
notes: Mzt1 of S. pombe; also called MOZART1 homolog; source: High Five insect cells (MultiBac baculovirus); coexpressed in lysate, co-purified in complexes, or purified alone (Ni2+ IMAC, Superdex 75); not shown: 6xHis, C-terminal, kept
Consider B1, for which the binding entry in assay [1] was “no binding”.

B2: Mto1/2[bonsai] complex (complex, S. pombe)
chain 1: TTDDEQLSPVLTANQGFQSQEQYEEDSYNNYDYTSDPSSPNYISSSLDQLPHLDDEDDLQLTPIKEERNYLHSQDAPTTNALSKKISDILIPASAMKDLKDRKNALAKEFEESQPGSSLTLKEQANVIDNLRKEVFGLKLKCYFLYDQLNKFHDQEVQDIMKQNIDLKTLTMELQRAVAGYEKKISGLESRIKPDQSFNLSTPSPAPSNLITLQSRYSQALSELETTKRAFAALRKEKSKKTNYSVGAYNEDRNVLSNMLDNERREKEALLQELESLRVQLSKKVPMPAKNTDERVIETLQRSNELLRMDISMQNEALLLRKQENDRLVKQVEELTVALNSGKMNAIVEAESSKNELWDSMMVSRMKTQEQSIELTRLYKQLQDIEEDYENKLMRMEQQWREDVDQLQEYVEEITQELQ
chain 2: MSEHNYQSDREVAEDPFLNYEASANQLSSNSRESTPRGSPWRAGMRSASLMTEPLEDSMYSDNNYLDNGVSFTKDENPLYSPSWPSLADANVNSMKSNNAIQEHKAAKFVSEKSLEKVSTADNNLVLQELENLRERLNQVELQLSERPSSYLGYHNNLSPYRSPNSYPSLLPSTHSPHSPAPLSTMQTALMRLRTYHPSPIILKPVEQAVNHAITLVNTSPSSVVDALCRSLAELCLGLVQEAIDASILSQQESSNSLDLVRHTPPLNYTSSVDSSPQRMASDSYGRPSLHLNDPFPSVDLQSNELSHHNVRTTLFSDDSRFHSKIHTHSTPPSQMYSAASHFRYRSDPSTRHVSNSTNKSSLHPSPTSLRVAHPIIPQRASPASQSFPSLQDTPSP
notes: Mto1 of S. pombe, amino acids 131-549 (Mto1[bonsai]); as m7; Mto2 of S. pombe; as m8; Copy numbers of the two chains in the complex are not measured here; also called 6xHis-Mto1/2[bonsai]; source: High Five insect cells (MultiBac baculovirus); coexpressed in lysate, or purified (ammonium sulfate, Ni2+ Fractogel, Superose 6); not shown: 6xHis, N-terminal, kept
On to B2, for which the binding entry in assay [2], in assay [3] and in assay [4] was “binds” throughout.

B3: Mto2 (protein, UniProt Q9USP7 1-397)
chain: MSEHNYQSDREVAEDPFLNYEASANQLSSNSRESTPRGSPWRAGMRSASLMTEPLEDSMYSDNNYLDNGVSFTKDENPLYSPSWPSLADANVNSMKSNNAIQEHKAAKFVSEKSLEKVSTADNNLVLQELENLRERLNQVELQLSERPSSYLGYHNNLSPYRSPNSYPSLLPSTHSPHSPAPLSTMQTALMRLRTYHPSPIILKPVEQAVNHAITLVNTSPSSVVDALCRSLAELCLGLVQEAIDASILSQQESSNSLDLVRHTPPLNYTSSVDSSPQRMASDSYGRPSLHLNDPFPSVDLQSNELSHHNVRTTLFSDDSRFHSKIHTHSTPPSQMYSAASHFRYRSDPSTRHVSNSTNKSSLHPSPTSLRVAHPIIPQRASPASQSFPSLQDTPSP
Consider B3, for which, in assay [5], the binding result was “binds”.
